Measured values: publication PMC13438671

Target: PfGCN5 Del3 second copy, C-terminally FLAG-tagged (Del3 rescue line) (P. falciparum)
Test: affinity purification with mass spectrometry; anti-FLAG magnetic beads on lysates of the WT and deletion rescue lines in the absence of rapamycin; LC-MS/MS

B1: adaptor protein 14-3-3I (PF3D7_0818200) (protein, UniProt C0H4V6 1-262)
chain: MATSEELKQLRCDCTYRSKLAEQAERYDEMADAMRTLVEQCVNNDKDELTVEERNLLSVAYKNAVGARRASWRIISSVEQKEMSKANVHNKNVAATYRKKVEEELNNICQDILNLLTKKLIPNTSESESKVFYYKMKGDYYRYISEFSCDEGKKEASNCAQEAYQKATDIAENELPSTHPIRLGLALNYSVFFYEILNQPHQACEMAKRAFDDAITEFDNVSEDSYKDSTLIMQLLRDNLTLWTSDLQGDQTEEKSKDEGLE
binding: binds

Results are given in words; binding and its absence hold for the method and conditions named. Binding seen in cells or lysates may run through a third protein. These calls come from enrichment with a bait or labelling near it, and not all partners need be listed.
